{
  "source": "patent US20130059929A1",
  "about": "“MICROBIOLOGICALLY STABLE, EASILY APPLICABLE PREPARATIONS” (Beiersdorf AG, priority 2010, published 2013)",
  "test_system": "Staphylococcus epidermidis",
  "experiment": "biofilm assay (biofilm inhibition and biofilm dissolution, color reaction on microtiter plate scale, FIG. 1)",
  "assay_type": "cell-based",
  "details": "timepoint 0 h, based on the positive control (PC1)",
  "procedure": "In the course of the biofilm assay, the biofilm inhibition at timepoint 0 h and also the biofilm-dissolving effect at timepoint 24 h is investigated using a color reaction on a microtiter plate scale.\nThe test shown in FIG. 1 was carried out with Staphylococcus epidermidis, a germ which causes little harm for people with a normal immunological defense. Staphylococcus epidermidis (syn. Staphylococcus albus, Micrococcus epidermidis, Staphylococcus saprophyticus) is a Gram-positive, plasmacoagulase-negative, saprophagic bacterium which colonizes the human skin and mucosa. Furthermore, it can be found on foods and also colonizes on polymeric surfaces (e.g. packagings). However, in a hospital, in the case of immunocompromised people, it can, in cases of lack of cleanliness, be a cause of serious diseases.",
  "data": [
    {"compound": "CC(C)(C)CC(C)(C)c1ccc(OCCOCC[N+](C)(C)Cc2ccccc2)cc1", "note": "[benzethonium chloride, benzyldimethyl (4-{2-[4-(1,1,3,3-tetramethylbutyl)phenoxy]ethoxy}ethyl)ammonium chloride]", "values": [
      {"measurement": "biofilm inhibition (biofilm-inhibiting effectiveness)", "result": "very good biofilm-inhibiting effectiveness"}
    ]}
  ]
}
